One assay concerns the target T1, HA-SIAH2 (UniProt O43255).
T1 sequence: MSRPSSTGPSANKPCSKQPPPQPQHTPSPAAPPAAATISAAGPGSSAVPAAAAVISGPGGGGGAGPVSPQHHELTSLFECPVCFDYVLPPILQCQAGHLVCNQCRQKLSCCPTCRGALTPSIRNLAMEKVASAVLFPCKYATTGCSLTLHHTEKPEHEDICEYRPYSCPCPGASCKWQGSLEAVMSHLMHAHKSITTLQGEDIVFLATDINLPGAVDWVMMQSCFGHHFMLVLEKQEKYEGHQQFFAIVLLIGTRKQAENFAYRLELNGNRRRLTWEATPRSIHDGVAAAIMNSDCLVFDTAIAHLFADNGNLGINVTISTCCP
The assay can be described thus: co-IP; HEK 293 cells co-transfected for 30 h, then MG132 (10 μM) for 18 h; anti-HA precipitation of HA-SIAH2, Flag-EAF2 detected with anti-flag; the legend says denatured cell lysates.

Sequences of proteins named here, by UniProt entry; tags and fusion partners are left off. A change or cut given only in a name is not applied to a line headed by its entry. A line that says so, or that is headed by a name, gives the form on record, which may keep a tag or linker.
UniProt Q96CJ1: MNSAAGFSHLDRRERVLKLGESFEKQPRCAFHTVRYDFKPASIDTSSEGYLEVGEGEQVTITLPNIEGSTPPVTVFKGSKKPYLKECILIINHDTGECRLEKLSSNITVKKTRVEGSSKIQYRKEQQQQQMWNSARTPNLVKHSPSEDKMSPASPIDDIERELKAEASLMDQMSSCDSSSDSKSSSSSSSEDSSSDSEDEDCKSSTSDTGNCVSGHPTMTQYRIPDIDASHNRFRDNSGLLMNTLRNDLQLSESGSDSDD
myc-EAF2^K39-81-85-111R (quadruple substitution EAF2 mutant) (Q96CJ1, form named): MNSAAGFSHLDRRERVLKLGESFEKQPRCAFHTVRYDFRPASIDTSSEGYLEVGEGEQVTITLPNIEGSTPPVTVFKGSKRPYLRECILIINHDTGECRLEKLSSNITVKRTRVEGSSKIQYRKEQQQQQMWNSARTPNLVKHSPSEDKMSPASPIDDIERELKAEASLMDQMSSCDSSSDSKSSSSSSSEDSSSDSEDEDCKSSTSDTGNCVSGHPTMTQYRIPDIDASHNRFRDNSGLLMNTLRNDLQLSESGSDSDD

The next assay addresses T2, GFP-ELL1 (UniProt P55199).
T2 sequence: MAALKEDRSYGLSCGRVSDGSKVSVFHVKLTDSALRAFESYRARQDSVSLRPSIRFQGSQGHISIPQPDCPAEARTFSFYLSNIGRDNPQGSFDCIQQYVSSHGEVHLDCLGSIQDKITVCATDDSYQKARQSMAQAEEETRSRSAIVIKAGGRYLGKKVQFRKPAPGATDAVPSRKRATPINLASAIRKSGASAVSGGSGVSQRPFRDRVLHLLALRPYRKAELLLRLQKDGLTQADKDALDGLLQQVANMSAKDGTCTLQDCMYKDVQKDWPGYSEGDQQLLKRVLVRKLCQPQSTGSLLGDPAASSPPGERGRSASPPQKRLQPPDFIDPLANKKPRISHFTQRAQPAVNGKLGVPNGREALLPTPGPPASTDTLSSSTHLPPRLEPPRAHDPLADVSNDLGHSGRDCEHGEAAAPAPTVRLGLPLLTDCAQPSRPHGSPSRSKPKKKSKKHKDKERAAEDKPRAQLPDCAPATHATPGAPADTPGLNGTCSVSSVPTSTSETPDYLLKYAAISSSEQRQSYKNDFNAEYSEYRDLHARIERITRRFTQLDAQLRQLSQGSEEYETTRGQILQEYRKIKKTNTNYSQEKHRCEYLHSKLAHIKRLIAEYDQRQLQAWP
The assay can be described thus: co-IP; HEK 293 cells co-transfected for 36 h; anti-GFP precipitation of GFP-ELL1, immunoblot with anti-myc; NP-40 lysis buffer (20 mM Tris-HCl pH 7.5, 150 mM NaCl, 0.5% NP-40), wash with 250 mM NaCl, 4°C.

Another assay deals with GFP-EAF2 (UniProt Q96CJ1). The assay can be described thus: co-IP; HEK 293 cells co-transfected with GFP-EAF2, HA-ubiquitin and HA-SIAH2 for 30 h, then MG132 (10 μM) for 18 h; anti-GFP precipitation of GFP-EAF2, HA-SIAH2 detected with anti-SIAH2; the legend says denatured cell lysates.

These are yes or no findings as the source states them, for the method shown. In cells and extracts the contact can be indirect. Some binding calls cover weakened binding; strength is not graded here. Where a sequence is shown, tags or fusion partners need not be part of it.

For Flag-EAF2 (from UniProt Q96CJ1 1-260), the binding result in the assay with HA-SIAH2 is “binds”.

Regarding “myc-EAF2 (wild-type ELL-associated factor 2) (from UniProt Q96CJ1 1-260)”, the binding result with GFP-ELL1 is on record as “binds”.

For “myc-EAF2^K39-81-85-111R (quadruple substitution EAF2 mutant) (from UniProt Q96CJ1 1-260)”, the binding result with GFP-ELL1 is reported as “binds”.

B1: HA-SIAH2 (enzyme, UniProt O43255 1-324)
chain: T1 sequence
For the molecule B1, the binding result in the assay with GFP-EAF2 was “binds”.

The values are drawn from publication PMC5045393.
